For at least one entry, the source does not settle the construct or the ends of the probe. Where cells or extracts were used, other partners may take part. A weaker result is weaker than the reference pair of the same experiment. At least one verdict was read from the data and is not stated in words by the source.
Molecular target: Etag-STAT3 wt (UniProt P40763)
Test: EMSA, supershift
Conditions: 10 mM Hepes pH 7.8, 1 mM EDTA, 5 mM MgCl2, 10% glycerol, 5 mM DTT, 2 mM Pefabloc SC, 1 mg/ml BSA, 0.1 mg/ml poly(dI-dC), 5 ug nuclear extract, ~10 fmol probe, 10 min, protein in a lysate after overexpression, label: alpha-32P dATP (Klenow fill-in)

Protein sequences, listed by entry. Tags and fused reporters are not part of them.
UniProt P40763, whole entry: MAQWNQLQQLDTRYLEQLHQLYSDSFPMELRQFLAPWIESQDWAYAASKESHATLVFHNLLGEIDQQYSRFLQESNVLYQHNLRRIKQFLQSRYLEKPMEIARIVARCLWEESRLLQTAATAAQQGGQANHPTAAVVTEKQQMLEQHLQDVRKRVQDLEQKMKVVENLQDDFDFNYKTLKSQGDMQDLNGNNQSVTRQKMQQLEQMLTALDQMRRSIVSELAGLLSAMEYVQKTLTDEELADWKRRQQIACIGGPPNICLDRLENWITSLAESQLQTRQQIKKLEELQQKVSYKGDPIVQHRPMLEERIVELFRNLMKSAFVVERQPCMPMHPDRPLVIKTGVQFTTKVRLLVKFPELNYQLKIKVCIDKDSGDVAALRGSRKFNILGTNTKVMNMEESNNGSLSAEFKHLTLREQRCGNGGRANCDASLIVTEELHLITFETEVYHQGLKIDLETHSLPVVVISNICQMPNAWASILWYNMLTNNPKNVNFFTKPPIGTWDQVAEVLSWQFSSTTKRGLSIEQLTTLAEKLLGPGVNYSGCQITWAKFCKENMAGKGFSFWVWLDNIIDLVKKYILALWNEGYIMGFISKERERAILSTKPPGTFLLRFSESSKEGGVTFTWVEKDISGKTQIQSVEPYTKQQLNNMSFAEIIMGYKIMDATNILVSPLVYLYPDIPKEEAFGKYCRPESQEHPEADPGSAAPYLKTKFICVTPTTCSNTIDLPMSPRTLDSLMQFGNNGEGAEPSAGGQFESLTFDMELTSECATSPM

Sequence | binding result (IFNa2 5 ng/ml 15 min) | binding result (LIF 15 ng/ml 15 min)
CGATTCCTGGAACTGCGCGG / CAGCATTTCCGCGCAGTTCCAGGAA [SOCS3 promoter probe] | binds more weakly | binds more weakly
GATCCGGGAGGGATTTACGGGAAATGCTG (double strand) [cFOS promoter probe] | binds more weakly | binds more weakly
